## Primary screen of a compound library

Chains of the proteins cited; added tags and fusions are not shown. Residues count along the entry.
UniProt P9WPC5, whole entry: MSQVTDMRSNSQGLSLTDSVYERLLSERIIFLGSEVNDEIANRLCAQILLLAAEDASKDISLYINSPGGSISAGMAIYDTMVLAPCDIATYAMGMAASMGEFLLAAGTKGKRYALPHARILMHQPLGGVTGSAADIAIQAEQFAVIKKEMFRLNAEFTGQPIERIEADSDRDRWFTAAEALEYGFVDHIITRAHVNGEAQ
UniProt P9WPC3, whole entry partner: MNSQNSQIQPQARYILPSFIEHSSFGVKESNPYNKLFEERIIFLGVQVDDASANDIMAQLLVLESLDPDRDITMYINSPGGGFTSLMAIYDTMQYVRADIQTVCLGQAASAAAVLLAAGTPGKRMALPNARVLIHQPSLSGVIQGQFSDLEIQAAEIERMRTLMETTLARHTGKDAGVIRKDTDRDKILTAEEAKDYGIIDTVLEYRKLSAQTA
UniProt I6X8D2, whole entry: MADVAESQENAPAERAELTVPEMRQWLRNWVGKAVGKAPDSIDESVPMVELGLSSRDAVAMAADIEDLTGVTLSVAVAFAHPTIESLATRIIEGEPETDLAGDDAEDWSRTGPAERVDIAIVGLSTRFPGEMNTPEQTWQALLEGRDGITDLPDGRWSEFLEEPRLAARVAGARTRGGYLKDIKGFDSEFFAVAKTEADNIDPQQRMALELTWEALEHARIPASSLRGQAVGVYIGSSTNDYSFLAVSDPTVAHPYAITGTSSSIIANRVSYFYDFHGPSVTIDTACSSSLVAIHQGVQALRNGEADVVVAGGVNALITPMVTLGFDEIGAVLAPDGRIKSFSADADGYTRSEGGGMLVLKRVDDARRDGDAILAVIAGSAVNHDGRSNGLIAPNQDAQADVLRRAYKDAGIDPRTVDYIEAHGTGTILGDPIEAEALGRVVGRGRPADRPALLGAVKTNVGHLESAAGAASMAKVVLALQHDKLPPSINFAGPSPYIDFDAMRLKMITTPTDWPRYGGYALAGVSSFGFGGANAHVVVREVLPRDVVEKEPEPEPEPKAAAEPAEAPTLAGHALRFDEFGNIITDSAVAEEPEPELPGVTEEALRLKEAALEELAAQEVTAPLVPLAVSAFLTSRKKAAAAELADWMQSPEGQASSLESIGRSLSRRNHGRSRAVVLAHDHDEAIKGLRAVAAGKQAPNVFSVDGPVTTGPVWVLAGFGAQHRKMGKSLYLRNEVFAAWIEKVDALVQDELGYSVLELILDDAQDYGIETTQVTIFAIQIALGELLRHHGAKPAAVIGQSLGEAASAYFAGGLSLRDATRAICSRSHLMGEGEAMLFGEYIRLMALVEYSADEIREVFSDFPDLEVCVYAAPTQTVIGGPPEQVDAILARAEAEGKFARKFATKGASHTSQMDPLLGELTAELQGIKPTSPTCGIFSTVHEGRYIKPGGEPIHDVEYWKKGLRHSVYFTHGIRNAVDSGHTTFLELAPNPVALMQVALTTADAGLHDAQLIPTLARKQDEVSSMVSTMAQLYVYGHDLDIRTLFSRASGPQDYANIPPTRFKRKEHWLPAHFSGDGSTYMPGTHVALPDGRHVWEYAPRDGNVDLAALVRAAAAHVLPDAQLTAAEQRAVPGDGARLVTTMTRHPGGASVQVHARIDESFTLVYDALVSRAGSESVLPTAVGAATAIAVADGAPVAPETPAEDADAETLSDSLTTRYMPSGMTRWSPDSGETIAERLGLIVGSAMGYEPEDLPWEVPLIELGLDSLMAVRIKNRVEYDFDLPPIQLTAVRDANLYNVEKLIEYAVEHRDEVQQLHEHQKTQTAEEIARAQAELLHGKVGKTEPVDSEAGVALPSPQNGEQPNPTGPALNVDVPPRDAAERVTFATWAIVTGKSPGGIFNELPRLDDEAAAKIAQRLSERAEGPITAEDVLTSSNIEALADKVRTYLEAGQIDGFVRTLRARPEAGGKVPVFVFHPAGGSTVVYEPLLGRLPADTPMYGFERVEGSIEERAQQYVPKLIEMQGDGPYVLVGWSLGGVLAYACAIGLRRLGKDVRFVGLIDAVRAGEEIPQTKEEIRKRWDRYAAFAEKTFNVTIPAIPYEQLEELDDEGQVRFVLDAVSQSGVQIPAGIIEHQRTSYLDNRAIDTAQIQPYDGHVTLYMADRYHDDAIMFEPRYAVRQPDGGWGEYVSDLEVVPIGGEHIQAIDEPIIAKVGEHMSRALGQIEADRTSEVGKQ
UniProt Q8IDJ8, 1-583: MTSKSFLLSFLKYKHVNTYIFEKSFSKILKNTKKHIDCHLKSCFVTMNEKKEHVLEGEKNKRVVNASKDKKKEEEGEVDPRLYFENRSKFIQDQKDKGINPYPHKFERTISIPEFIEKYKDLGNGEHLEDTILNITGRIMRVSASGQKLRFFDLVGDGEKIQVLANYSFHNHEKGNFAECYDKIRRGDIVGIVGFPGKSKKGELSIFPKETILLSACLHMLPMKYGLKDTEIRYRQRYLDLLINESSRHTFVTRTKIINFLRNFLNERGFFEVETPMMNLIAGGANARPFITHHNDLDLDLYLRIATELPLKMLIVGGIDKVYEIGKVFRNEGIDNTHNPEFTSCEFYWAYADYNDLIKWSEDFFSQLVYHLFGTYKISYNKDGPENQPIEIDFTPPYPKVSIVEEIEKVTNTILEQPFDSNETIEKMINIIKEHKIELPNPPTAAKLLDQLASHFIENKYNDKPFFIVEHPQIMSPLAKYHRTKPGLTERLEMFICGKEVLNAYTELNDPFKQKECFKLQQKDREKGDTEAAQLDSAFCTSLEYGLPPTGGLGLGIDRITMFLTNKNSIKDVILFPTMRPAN

ClpP1P2: 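ClpP1P2, Mycobacterium tuberculosis (UniProt P9WPC5 and UniProt P9WPC3). Protease assay of ClpP1P2, read by the AMC dye that it sets free. Compounds at 50 µM. Direction is inferred from only a few compounds that gave an IC50; most scored high, so higher reads as stronger inhibition. Most other retested compounds had strongly negative values. About 69,000 compounds were tested under these conditions; 0.015% (about 10) showed 50% or more at least once.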
Leishmania in macrophages: 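Cell assay of Leishmania donovani living inside macrophages; the read-out is not stated. Compounds at 30 µM. Higher reads as stronger inhibition (inferred: compounds with an IC50 in retests scored well above the rest). About 69,000 compounds were tested under these conditions; 1.5% (about 1,000) showed 50% or more at least once.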
Pks13 thioesterase: 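Enzyme assay of the thioesterase domain of polyketide synthase 13; the read-out is not stated. Target: Polyketide synthase Pks13, Mycobacterium tuberculosis (UniProt I6X8D2). Compounds at 30 µM. Higher reads as stronger inhibition (inferred from which compounds were picked for retests). Of about 67,000 compounds tested this way, about 300 (0.46%) reached 50% or more in at least one test.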
PfKRS1: 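Enzyme assay of the cytosolic lysyl-tRNA synthetase in 384-well plates, read by luminescence. Target: Lysine-tRNA ligase, Plasmodium falciparum 3D7 (UniProt Q8IDJ8). Concentration: 30 µM. Direction is inferred from only a few compounds that gave an IC50; most scored high, so higher reads as stronger inhibition. Of about 69,000 compounds tested this way, about 49 (0.071%) reached 50% or more in at least one test.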
Toxoplasma: 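Assay of Toxoplasma gondii numbers, read through their beta-galactosidase reporter with a colour substrate. Tested at 10 µM. The record gives no direction; the compounds picked for IC50 retests had high values, so higher reads as fewer parasites. About 67,000 compounds were tested under these conditions; 0.38% (about 260) showed 50% or more at least once.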

Results are given as percent effect.
The controls that fix the scale are not given in the record; negative values are as filed.
The compounds are a random part of those screened.
Two or more numbers in one place are separate tests of the same structure; such repeats can differ widely.
A dash means the value is not listed here; it may have been measured.

| SMILES | ClpP1P2 | Leishmania in macrophages | Pks13 thioesterase | PfKRS1 | Toxoplasma |
|---|---|---|---|---|---|
| `CN(C)Cc1ccc(CNC(=O)NCC2(C)CCCS2)cc1` (configuration not stated) | -16.71 | 24.27 | 4.175 | 0.6208 | -17.15 |
| `CN(C)c1nc(N)nc(CN2CCC(c3nc4ccccc4o3)CC2)n1` | 1.609 | 28.47 | - | 6.052 | 1.647 |
| `COCC(Nc1ncnc2sc(C(=O)O)c(C)c12)c1ccnn1C` (configuration not stated) | -7.347 | 25.03 | - | 6.641 | -0.6882 |
| `COCCN1CCc2cc(C(=O)O)c(-c3ccoc3)nc2CC1.O=C(O)C(F)(F)F.O=C(O)C(F)(F)F` | - | 31.6 | - | - | -25.07 |
| `COC1CCC[C@@H]2CN(Cc3csc(C)n3)C[C@H]12` (some centres not stated) | 9.803 | - | 5.6 | 7.538 | - |
| `Cc1nn(CCO)cc1CN1CCC(C(C)N2CCCC2)CC1` (configuration not stated) | 6.676 | 30.43 | -26.15 | 4.294 | 0.7134 |
| `O=C1CSC(c2ccsc2)c2c(n(C3CCOCC3)[nH]c2=O)N1` (configuration not stated) | 0.4158 | 2.813 | - | 0.3149 | 7.89 |
| `Cc1noc(C)c1CN1Cc2ccnn2CC(C(=O)NCC2CC2)C1.O=C(O)C(F)(F)F.O=C(O)C(F)(F)F` (configuration not stated) | - | 11.46 | - | - | -3.938 |
| `Cc1nc(CN2CCCC(c3cc(C(N)=O)[nH]n3)C2)oc1C` (configuration not stated) | -12.63 | 15.87 | -1.065 | 1.246 | -8.641 |
| `CCn1ncnc1C(C)NC(=O)C1CCN(Cc2ccco2)CC1` (configuration not stated) | -0.5269 | -20.67 | -14.62 | 0.8855 | -2.761 |
| `CCc1cc(NCCNC(C)=O)nc(N2CCOCC2)n1` | -2.897 | 9.174 | -37.82 | -0.1491 | 13.01 |
| `O=S(=O)(N1CCN(CC2CC2)CC1)N1CCCC1c1ccco1` (configuration not stated) | -3.426 | 38.41 | 0.722 | 0.7434 | 15.5 |
| `O=C(O)C(F)(F)F.[H][C@@]12COC[C@]1(C(=O)NCCc1cccs1)CN(c1ncccn1)C2` | - | 17.27 | - | - | 28.57 |
| `CC(C)n1c(C2CCCN(CCS(C)(=O)=O)C2)nc2ccccc21` (configuration not stated) | -4.763 | 13.25 | -15.38 | 6.659 | 4.719 |
| `COc1ccc2nnc(CCC(=O)Nc3nc4c(s3)CCCC4)n2n1` | 24.22 | 12.81 | -11.68 | -0.2288 | 9.131 |
| `Cc1nc(-c2ccc(Cl)cc2)n(CC(=O)NC(C)C)c(=O)c1CCO` | 1.123 | 16.65 | -18.24 | 7.371 | 5.685 |
| `O=C(Cc1csc(-c2nnc[nH]2)n1)N1CCCC1Cn1cccn1` (configuration not stated) | 5.724 | -15.74 | -35.18 | 4.295 | -13.1 |
| `COCc1nc(C(=O)NS(=O)(=O)c2ccc(Cl)cc2F)cs1` | -17.09 | -16.38 | -12.85 | 0.676 | 10.09 |
| `CNc1nc(CNC(=O)Nc2cccc(CC(F)(F)F)c2)cs1` | -18.14 | 39.08 | -2.808 | -0.582 | 9.715 |
| `Cn1cc(NC(=O)CNC(=O)N2CCN(c3ccc(F)cc3)CC2)cn1` | -0.1946 | 8.512 | -0.7361 | 4.134 | 16.09 |
| `CC(C)C1SCC(=O)Nc2c1cnn2-c1ccc(Cl)cc1` (configuration not stated) | -4.007 | 63.84 | -26.64 | 6.43 | - |
| `CC1CCCN(S(=O)(=O)NCc2ccccc2Cn2cncn2)C1` (configuration not stated) | 10.39 | 12.98 | 0.8154 | 2.383 | -6.887 |
| `O=C(O)C(F)(F)F.[H][C@@]12C[C@H](C(=O)N3CCCCO3)CN(CCc3ccccc3)[C@]1([H])CCO2` | - | -2.733 | - | - | 0.269 |
| `CCOc1ccc(CN(C)C(=O)NC(C)c2nncn2C)cc1` (configuration not stated) | 7.363 | 8.319 | -12.64 | 0.2932 | -3.024 |
| `Cc1nc(-c2cc(C(=O)NC(C)(C(=O)O)C(C)C)co2)cs1` (configuration not stated) | 0.4155 | 16.3 | -28.95 | 1.934 | 1.919 |
| `CC(CCc1ccccc1)N1CCC(C(=O)Nc2ccccn2)CC1` (configuration not stated) | 2.295 | 23.88 & -12.49 | -1.813 | 0.5474 | 10.81 |
| `Cn1cc(CN2CCCn3cnc(COCc4ccco4)c3C2)cn1` | -10.72 | 2.991 | 20.71 | 6.873 | 5.665 |
| `CCN(CC)c1ccc(NS(=O)(=O)c2cncc(F)c2)cn1` | 3.708 | 25.93 | -0.8034 | 1.475 | -1.879 |
| `Cn1cc(C2CCCN2C(=O)c2cnc(C3CC3)s2)cn1` (configuration not stated) | -1.799 | -21.09 | - | 6.617 | -0.2722 |
| `Cc1cnn(CC2CCCN2C(=O)c2ccc3cc[nH]c3c2)c1` (configuration not stated) | -7.301 | 5.186 | -8.495 | 0.992 | -1.519 |
| `Cc1nc(C2CCCN(C(=O)c3cc(Cl)c4c(c3)OCO4)C2)no1` (configuration not stated) | 7.443 | 36.52 | -8.239 | 5.617 | -3.389 |
| `COc1cc(CN2CCCC(Nc3cccc(F)c3)C2)cc(OC)c1O` (configuration not stated) | -10.62 | 10.61 | - | 3.326 | 1.797 |
| `O=C(O)C(F)(F)F.O=C(O)C(F)(F)F.c1cnc(N2CCC3(CCN(CC4CC4)CC3)CC2)nc1` | - | 19.37 | - | - | 4.6 |
| `Cc1ccc(N(CCC#N)C(=O)CCc2cccnc2)cc1C` | -6.867 | -9.5 | -8.306 | -2.264 | -10.89 |
| `COc1cc(Cl)cc(CN2CCCC(N3CCOCC3)C2)c1OC` (configuration not stated) | -9.351 | 2.03 | -2.986 | 1.309 | 18.42 |
| `CN1CCN(S(=O)(=O)C2CC2)Cc2cccnc21` | 1.408 | 27.58 | 23.04 | 3.828 | -21.98 |
| `[H][C@]12CC[C@]([H])(CN(Cc3ccccc3C#N)C1)N(Cc1cscn1)C2=O` | - | 14.12 | - | - | -4.039 |
| `O=C(CNc1ccccc1S(=O)(=O)C(F)F)NCc1ccco1` | 5.585 | 5.877 | -13.82 | 3.013 | -14.06 |
| `Cc1ccc2nc3n(c2c1)[C@@H](CNCc1nccs1)COC3` | -13.38 | 7.589 | -24.34 | 7.336 | -1.601 |
| `O=C1C(NCc2nnc3n2CCCC3)CCCN1c1ccccc1` (configuration not stated) | -34.4 | 17.62 | - | 3.069 | 2.319 |
| `CCC(O)Cn1cc(C2=CCN(Cc3cc(O)nc(C)n3)CC2)cn1` (configuration not stated) | 8.335 | -22.1 | 7.399 | 1.273 | 26.62 |
| `O=C(C1CCOCC1)N1C[C@@H]2OCCN(CCN3CCCC3)[C@@H]2C1` | -1.892 | - | -27.75 | 1.952 | - |
| `CC(=O)N1CCCC1c1ccc(-c2c(C)noc2C)cn1` (configuration not stated) | -5.883 | 2.814 | -29.05 | 1.01 | 1.602 |
| `O=C(O)C(F)(F)F.[H][C@@]12CCN(Cc3cc(C)on3)C[C@]1([H])OCCN(c1ccsc1)C2=O` | - | 26.19 | - | - | -4.655 |
| `O=C(O)C(F)(F)F.[H][C@@]12COC[C@]1([H])[C@@H](OC)CN2Cc1cccc(C#N)c1` | - | -4.59 | - | - | 5.983 |
| `CCC(C)n1cnc(S(=O)(=O)N(C)C)c1` (configuration not stated) | -5.945 | 10.43 | -20 | -1.229 | -1.959 |
| `Cl.c1cnc2c(c1)cc([C@H]1CCCO1)n2CCN1CCCC1` | - | -32.42 | - | - | -19.92 |
| `Cc1cnn(CC2CCCN2Cc2nnc(C)o2)c1` (configuration not stated) | -3.549 | 25.38 | 0.4596 | 1.845 | -8.793 |
| `COCCOCCNS(=O)(=O)C1CS(=O)(=O)c2ccccc21` (configuration not stated) | 7.096 | -2.938 | 3.481 | 5.965 | 1.167 |
| `Cn1cnc2c1CCN(CCCOc1ccc(C#N)cc1)C2` | -5.065 | 12.76 | -21.32 | 2.477 | - |
| `CC(C)[C@H](NS(C)(=O)=O)C(=O)NCc1cc(-c2cccc(Cl)c2)nn1C` | -10.88 | 14.4 & 1.77 | 10.86 | 1.438 | 3.447 |

The first 3 entries again:

SMILES,ClpP1P2,Leishmania in macrophages,Pks13 thioesterase,PfKRS1,Toxoplasma
CN(C)Cc1ccc(CNC(=O)NCC2(C)CCCS2)cc1 (configuration not stated),-16.71,24.27,4.175,0.6208,-17.15
CN(C)c1nc(N)nc(CN2CCC(c3nc4ccccc4o3)CC2)n1,1.609,28.47,-,6.052,1.647
COCC(Nc1ncnc2sc(C(=O)O)c(C)c12)c1ccnn1C (configuration not stated),-7.347,25.03,-,6.641,-0.6882

Source: ChEMBL document CHEMBL3988442, “University of Dundee, Small-Polar-MMV Screening Library” (2021).